Experimental data taken from the RNAGym collection of RNA variant scans (doi:10.1126/science.aae0568).
Variants at the background level are over-represented here.

B1: tRNA (parent)
chain: GUUCCGUUGGCGUAAUGGUAACGCGUCUCCCUCCUAAGGAGAAGACUGCGGGUUCGAGUCCCGUACGGAACG

Variants of: B1
Test: yeast fitness relative to wild type (ratio to wild type); higher = fitter; tRNA-Arg(CCU), competitive growth, 37 C, YPD
How it was run: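 Genotype frequency changes were the basis for Darwinian fitness relative to wild type. The frequencies came from 100-nucleotide paired-end sequencing of gene amplicons from the start population and each end population of pooled yeast strains with tRNA-Arg(CCU) gene variants at the native locus. Competition ran in YPD at 37°C for 24 hours in six replicates, genotypes needed ≥ 100 starting reads, and estimates < 0.5 were set to 0.5.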

GCUCCGUUGGUGUCAUGGUAACGCGUCUCCCUCGUAAGGCGCAGACUGCGGGUUCGAGUCCCGUACGGAACG and GUUUCGUUGGGGUAAUGGUACCGCGUCUCCCUACGAAGGCGAAGACUGCGGGUUCGAGUCCCGUUCGGAACG cannot be ordered by yeast fitness: ≤ 0.5 for the first, ≤ 0.5 for the second.

First: GUUCCGUUGGCGUAAUGGUAAGGCGUCUCCCUCCUAAGGAGAAGAGUGCGGGUUCGAGUCCCGUACGGAACG
Second: GUUCCGUUGGCGUAAUGGUGACGCGUCUCCGUCCUAAGGAGAAGACUGCGGGUUCGAGUUCUGUACGGAACG
The yeast fitness of the first is higher: 0.974 for the first, ≤ 0.5 for the second.

GUUCCGUUGCCGUAAUGGUAACGUGUCUACCUCCUAAGGAGAAGUGAGCAGGUUCGAGUCACGUACGGAACG and GUUCCGUUGGCGUAAUGGUAACGCGUCGCGCUCCUAAGGAGUAGACUGCGGGUUCGAGUCCCGUACGGAACG cannot be ordered by yeast fitness: ≤ 0.5 for the first, ≤ 0.5 for the second.

GUUCCGUUGGCGUAAUGGUAACGCGGCUCCCUCCUAUGGAGAAGUCUGCGAGUUCGAGUCCCGUCCGGAACG and GUUGCGUCGGCGUAAUGGUAACGCGUUUCCCUCCUAAGGAGAAGACUGUGGGUUCGAGUCCCGUACGGAACG cannot be ordered by yeast fitness: ≤ 0.5 for the first, ≤ 0.5 for the second.

GUUCCGUUGGCGUAUUGGUACCGCGUCUCCCUCCUAAGGAGAAGACUGCGCAUUCGAGUCCCGUACGGAACG and GUUCCGUUGGCGUAAUGGUCACGCGUCCCCCUCCUAAGGAAAAGACUGCGGGUUCGUGUCCCGUAGGGAACG cannot be ordered by yeast fitness: ≤ 0.5 for the first, ≤ 0.5 for the second.

GUUUCGUUGGCGUAAUGGUAACGAGUCUCCCUCCUAAGGAGAAGACUGCGGGUUCGUGUACCGUACGCAACG and GUUCCGUUGGCGUAAUGGUAACGCGUCUCGCUCCUAAGGAGCAGACUGCGGGUUCGAGAUCCGUAUGGAACG cannot be ordered by yeast fitness: ≤ 0.5 for the first, ≤ 0.5 for the second.

Compared with GUUCCGUUGGCGUAAUGGAAACGCGUCUCACUCCUAAGGAGAAGAUUGCGGCUUCGAGUCCCGUACGGAACG, GUUCCGUUAGCGUAAUGGUAACGCGUCUCCCUCCUAAGGAGAAGAGUGCGGGUUCGAGUCCCGUACGGAACG is higher in yeast fitness: ≤ 0.5 for the first, 0.993 for the second.

GAUCCGUUGGCGUAAUGGUAACGCGUCUACCCCCUGAGGAGAAGUCUGCGGGUUCGAGUCCCGUACGGAACG and GUUCCGUUGGCGUAAUGGUAACGCGUGUCCCUCCUAAGGAGAAGACUGCGGGUCCGAGUCCCGUGCGGAACG cannot be ordered by yeast fitness: ≤ 0.5 for the first, ≤ 0.5 for the second.

GUUCCGUUGGCGUAAUGGUACCGCGUGUACCUCCUAAGGAGAAGACUGCGGGUUCGAGUCCCGUACGGAACG and GUUCCGUUGGCGUAAUGGUCACGCGUCUCCCUCCUAAGGAAAAGACUGCGGGUUCGAUUCCCGUACGGUACG cannot be ordered by yeast fitness: ≤ 0.5 for the first, ≤ 0.5 for the second.

First: GUUCCGUUGGCGUAAUGGUAACGCGUCUCCCUCGUAAGGAGACGACUGCUGGUUCGAGUCCCGUACGGAACG
Second: GUUCCGUUGGCGUAAUGGUAACGCGUCUCCCUCCUAAGGAGAAGACUGCGGGUUCGAGUCCCGUAAGGAGCG
The yeast fitness of the first is lower: ≤ 0.5 for the first, 0.764 for the second.

Compared with GUUUCGUUGGCGUAAUGGUAACGCGUCUCCCUCCUAAGGAGAAGACUGAGGGUUCGAGUCCCGUACGGAACG, GUUCCGUUGGCGUAGUGGUAACGCGUCUCCUUCCUAAGGAGAAGACUGCGGGUUCGAGUCCCGAACGGAACG is lower in yeast fitness: 0.787 for the first, ≤ 0.5 for the second.

GUUCCAUUGGAGUAAUGGUAACGCGUCUCCCUCCUAAGGGGAAGACUGCGGGUUCCAGUCCCGUACGGAGCG and GUUCCGUUGGCGUAAAGGUAAGGCGUCUCCCUCCUAAGGAGAAGACUGCGGGUUCGAGUCGCGUAUGGUACG cannot be ordered by yeast fitness: ≤ 0.5 for the first, ≤ 0.5 for the second.

GUUCCGUUGGCGUAAUGGUAACGCGUCUCCCUCCUAAGGAGAAGACUGCAGGUUCGAGACCCGUACCGAACG and GUUCCGUUGGCGUAAUGGUAACGCGUCCCCCUCGUAAGGAGCAGAUUGCGGGUAGGACUCCCGUAAGGAACG cannot be ordered by yeast fitness: ≤ 0.5 for the first, ≤ 0.5 for the second.

GUUCCGUUGGCGUCAUGGUAACGCGUGUCCCUCCUAAGGAGAAGAGUGCGGGUUCGAGUCCCAUGCGGAACG and GUUCUGUUGGCGUAAAGGUAACGCGUCUCCCUCAUAAGGAGAAGACUGCGGGCUCGAGUUCCGUACGGAACG cannot be ordered by yeast fitness: ≤ 0.5 for the first, ≤ 0.5 for the second.

Compared with GUUCAGUUGGCGUAAUGGUAACGCGUCUCCCUCCUAAGGUGAAGACUGCGGGUUCGAGUUGCGUACGGAACG, GUUCCGUUGGCGUAAUGGUAAAGCGACUUCCUCCUAAGGCGCAGACUGCGGGUUCGAGUCCCGUACGGAACG is lower in yeast fitness: 0.525 for the first, ≤ 0.5 for the second.

GGUCCAUUGGCGUAAUGGUAACGCGUCUUCCUCCUAAGGAGAAGACUGCGGGUUCGAGUCCCGUACGGAACG and GUUCCGUUGCCGUAAUGGUAACGCGUCUCCCUCCUAAGGAGAAGACGGCGGGUUCGAGUCCCGUACGUAACG cannot be ordered by yeast fitness: ≤ 0.5 for the first, ≤ 0.5 for the second.

Compared with GUUCUGUUGGCGUAAUCGUAACGCGUCUCCCUCCUAAGGAGAAGACUGCGGGUUUGAGUCCCGUAGGGAACG, GUACCGUUGGCGUAAUGGUAACGCGUCUCCUUCCUAAGGAGAAGACUGCGGGUUCGUGUCCCGUACGGAACG is higher in yeast fitness: ≤ 0.5 for the first, 0.598 for the second.

GUUGCGUUGGGGUAAUGGUAAUGCGUCUCCCUCCUAAGGAGAAGACUGCGGGUUUGAGUCACGUACGGAACG and GUUCCGUUGGCAUAAUGGUACCGCGUCUCCUUCCUAAGGAGAAGACUGCGGGUUCGAGUCCCGUACGGAACG cannot be ordered by yeast fitness: ≤ 0.5 for the first, ≤ 0.5 for the second.

With GUUCCGUUGGCGUAAUGGUAACGCGUCUCCCUCCUAAGCAGCAGACUGCGGGUUCGAGUCCUGUACGGCACG the yeast fitness was ≤ 0.5.
